Assay [1] concerns the target T1, Receptor interacting protein kinase-3 (mouse (endogenous in MOVAS and L929)), Q9QZL0. Nature of the assay: proximity ligation; in situ PLA (Duolink) on fixed, permeabilised MOVAS (30 ng/ml TNFα plus 60 μM zVAD, 3 h) and L929 cells after necroptosis induction. The settings on record: remark: other sources report otherwise.
In assay [2] the target is T1, Receptor interacting protein kinase-3 …. Nature of the assay: co-IP; MOVAS (30 ng/ml TNFα plus 60 μM zVAD, 3 h) and L929 cells after necroptosis induction; lysate in Pierce IP Lysis Buffer; anti-RIP3 or isotype control on Protein A magnetic beads, 1 h at room temperature; immunoblot. The settings on record: remark: other sources report otherwise.

These are yes or no findings as the source states them, for the method shown. Binding seen in cells or lysates may run through a third protein. Some entries that bind do so weakly or less than the wild type.

B1: Receptor interacting protein kinase-1, Q60855 1-656 (protein)
chain: MQPDMSLDNIKMASSDLLEKTDLDSGGFGKVSLCYHRSHGFVILKKVYTGPNRAEYNEVLLEEGKMMHRLRHSRVVKLLGIIIEEGNYSLVMEYMEKGNLMHVLKTQIDVPLSLKGRIIVEAIEGMCYLHDKGVIHKDLKPENILVDRDFHIKIADLGVASFKTWSKLTKEKDNKQKEVSSTTKKNNGGTLYYMAPEHLNDINAKPTEKSDVYSFGIVLWAIFAKKEPYENVICTEQFVICIKSGNRPNVEEILEYCPREIISLMERCWQAIPEDRPTFLGIEEEFRPFYLSHFEEYVEEDVASLKKEYPDQSPVLQRMFSLQHDCVPLPPSRSNSEQPGSLHSSQGLQMGPVEESWFSSSPEYPQDENDRSVQAKLQEEASYHAFGIFAEKQTKPQPRQNEAYNREEERKRRVSHDPFAQQRARENIKSAGARGHSDPSTTSRGIAVQQLSWPATQTVWNNGLYNQHGFGTTGTGVWYPPNLSQMYSTYKTPVPETNIPGSTPTMPYFSGPVADDLIKYTIFNSSGIQIGNHNYMDVGLNSQPPNNTCKEESTSRHQAIFDNTTSLTDEHLNPIRENLGRQWKNCARKLGFTESQIDEIDHDYERDGLKEKVYQMLQKWLMREGTKGATVGKLAQALHQCCRIDLLNHLIRASQS
Turning to B1, the binding result in assay [1] and in assay [2] was “binds” each time.
